The data set can be described thus: general procedure: Fmoc solid-phase peptide synthesis. Conditions: analytical HPLC and mass spectrometry.

Plain letter strings leave the end groups untold. The same purity stands for every peptide and may come from a single statement. Non-standard residues stand in square brackets, D forms with d. *: point of attachment. X1 = CN1CC[C@]23c4c5ccc(O)c4O[C@H]2[C@@H](O[C@@H]2O[C@H](C(=O)NCCS*)[C@@H](O)[C@H](O)[C@H]2O)C=C[C@H]3[C@H]1C5; Mpa = O=C(O)CCS

For the substance RRLSYSRRRF, the “final HPLC purity” value (whole synthesis) is given as >95%.
In the case of “[Mpa](X1)RRLSYSRRRF-OH (C-terminus assumed; SMILES CC(C)C[C@H](NC(=O)[C@H](CCCNC(=N)N)NC(=O)[C@H](CCCNC(=N)N)NC(=O)CCSSCCNC(=O)[C@H]1O[C@@H](O[C@H]2C=C[C@H]3[C@H]4Cc5ccc(O)c6c5[C@@]3(CCN4C)[C@H]2O6)[C@H](O)[C@@H](O)[C@@H]1O)C(=O)N[C@@H](CO)C(=O)N[C@@H](Cc1ccc(O)cc1)C(=O)N[C@@H](CO)C(=O)N[C@@H](CCCNC(=N)N)C(=O)N[C@@H](CCCNC(=N)N)C(=O)N[C@@H](CCCNC(=N)N)C(=O)N[C@@H](Cc1ccccc1)C(=O)O)”, the “final HPLC purity” value (conjugation step) is on record as >95%.

These data come from US20040248806A1 (priority 2001, published 2004).
